# Test results reported in patent US4068070A, “α-Cyanoamine compounds and a process for producing the same” (Fuji Chemical Industry Co., Ltd., priority 1974, dated 1978).
# Counter-ions that a name gives are not always drawn. At least one compound was matched to its structure with a doubt left.
# Tests used:
# heart rate = experiment: Effects on heart rate; type: in vivo, mongrel adult dogs; conditions: i.v., anesthetized dogs
# Experimental: (§1) All experiments were made on male and female thoractomized mongrel adult dogs weighing about 10 kg. under anesthesia with pentobarbital sodium. Compounds A, D, E and F were suspended in 0.2% CMC solution, Compound B dissolved in hydrochloric acid solution (pH 6), and Compound C and active placebo being dissolved in physiological saline solution. Animals were administered the drug intravenously on brachiuma with either test compound or active placebo.
# (§2) Arterial blood pressure was measured by pressure transducer (Nippon Koden MPU-0.5) connected with the cannula inserted from exposed carotid artery into aorta. Aortic blood flow was determined by means of electromagnetic flow meter (Nippon Koden MF-5) mounted at the origin of the aorta. Coronary sinus out flow and coronary sinus oxygen tension were assessed by means of electromagnetic flow meter (Nippon Koden MF-5) and P02 macro electrode (Beokmann Moder 160-C), respectively using Morawitz cannulization technique. Heart rate was measured by cardiotachometer (Nippon Koden RT-2) synchronized with systolic blood pressure of aorta.
# coronary sinus out flow = experiment: Effects on coronary sinus out flow; type: in vivo, mongrel adult dogs; conditions: i.v., anesthetized dogs
# Experimental: as §1, §2
# aortic blood flow = experiment: Effects on aortic blood flow; type: in vivo, mongrel adult dogs; conditions: i.v., anesthetized dogs
# Experimental: as §1, §2
# [1] = test system: arterial mean blood pressure; experiment: Effects on arterial mean blood pressure; type: in vivo, mongrel adult dogs; conditions: i.v., anesthetized dogs
# Experimental: as §1, §2
# coronary blood flow = conditions: marketed antianginal drug; cited from earlier work
smiles,measurement,setting,value
"COc1ccc(CN2CCNCC2)c(OC)c1OC [Vastarel F, 2,3,4-trimethoxybenzylpiperazine dihydrochloride, reference compound]",Effects on heart rate (in words),heart rate,slight negative chronotropic effects accompanied by an increase in heart rate immediately after administration
same,Effects on coronary sinus out flow (in words),coronary sinus out flow,a decrease in coronary sinus out flow until 1 minute after medication and increased it only to an extremely slight extent from after 5 minutes
same,Effects on aortic blood flow (in words),aortic blood flow,decreased markedly the blood flow immediately after medication and thereafter an increase in aortic blood flow was observed
same,Effects on arterial mean blood pressure (in words),[1],"hypotensive effects in proportion to dose, which was relatively transitory"
same,pharmacological and clinical effect,coronary blood flow,"clinically effective as an antianginal drug, and the pharmacological effect has been to increase coronary blood flow and to enhance myocardial metabolism. However, these effects are relatively transitory"
